Source: publication doi:10.1101/2020.01.31.928440
Results are given in words; binding and its absence hold for the method and conditions named. Some binding calls cover weakened binding; strength is not graded here.

What was measured:
[1] = target: T1, Ist2 full length cytosolic tail (aa 590-878) (yeast (S. cerevisiae)) (UniProt P38250); assay: two-hybrid
T1 sequence: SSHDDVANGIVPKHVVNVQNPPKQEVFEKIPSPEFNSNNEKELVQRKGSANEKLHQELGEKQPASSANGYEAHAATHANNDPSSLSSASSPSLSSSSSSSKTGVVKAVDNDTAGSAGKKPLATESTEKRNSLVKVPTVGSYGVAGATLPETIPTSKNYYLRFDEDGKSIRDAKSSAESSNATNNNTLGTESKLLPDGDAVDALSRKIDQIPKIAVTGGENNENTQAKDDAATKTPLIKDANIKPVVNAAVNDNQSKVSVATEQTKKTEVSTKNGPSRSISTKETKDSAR

[2] = target: T2, Ist2 fragment aa 729-747 (yeast (S. cerevisiae)) (UniProt P38250); assay: two-hybrid
T2 sequence: SYGVAGATLPETIPTSKNY

binding [1]: binds
binding [2]: binds
B1: Osh7 (two-hybrid prey) (protein, UniProt P38755 1-437)
chain: MALNKLKNIPSLTNSSHSSINGIASNAANSKPSGADTDDIDENDESGQSILLNIISQLKPGCDLSRITLPTFILEKKSMLERITNQLQFPDVLLEAHSNKDGLQRFVKVVAWYLAGWHIGPRAVKKPLNPILGEHFTAYWDLPNKQQAFYIAEQTSHHPPESAYFYMIPESNIRVDGVVVPKSKFLGNSSAAMMEGLTVLQFLDIKDANGKPEKYTLSQPNVYARGILFGKMRIELGDHMVIMGPKYQVDIEFKTKGFISGTYDAIEGTIKDYDGKEYYQISGKWNDIMYIKDLREKSSKKTVLFDTHQHFPLAPKVRPLEEQGEYESRRLWKKVTDALAVRDHEVATEEKFQIENRQRELAKKRAEDGVEFHSKLFRRAEPGEDLDYYIYKHIPEGTDKHEEQIRSILETAPILPGQTFTEKFSIPAYKKHGIQKN
